Laboratory results reported in the supplement of paper PMC10849652.
Some of the results follow.

By UniProt entry, the sequences of proteins in these tests, tags left out. Where a name states a change or a piece, a line headed by the entry shows the natural chain unless it says otherwise.
UniProt Q8N6Q8: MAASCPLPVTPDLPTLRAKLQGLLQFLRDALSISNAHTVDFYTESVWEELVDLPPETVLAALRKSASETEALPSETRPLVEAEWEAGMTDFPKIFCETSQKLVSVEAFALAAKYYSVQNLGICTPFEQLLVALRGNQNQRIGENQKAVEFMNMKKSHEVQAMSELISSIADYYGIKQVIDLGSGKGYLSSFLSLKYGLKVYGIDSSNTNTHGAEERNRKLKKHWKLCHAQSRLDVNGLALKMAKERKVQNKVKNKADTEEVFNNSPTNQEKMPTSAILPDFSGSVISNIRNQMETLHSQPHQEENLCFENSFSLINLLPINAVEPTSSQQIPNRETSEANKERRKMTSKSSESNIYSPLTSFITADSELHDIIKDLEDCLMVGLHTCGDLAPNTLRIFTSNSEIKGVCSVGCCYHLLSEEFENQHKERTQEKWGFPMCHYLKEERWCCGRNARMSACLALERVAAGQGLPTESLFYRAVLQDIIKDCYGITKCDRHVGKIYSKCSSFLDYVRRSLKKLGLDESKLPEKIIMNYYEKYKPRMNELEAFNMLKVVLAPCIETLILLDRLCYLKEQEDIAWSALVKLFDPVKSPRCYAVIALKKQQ
UniProt Q9NWR8: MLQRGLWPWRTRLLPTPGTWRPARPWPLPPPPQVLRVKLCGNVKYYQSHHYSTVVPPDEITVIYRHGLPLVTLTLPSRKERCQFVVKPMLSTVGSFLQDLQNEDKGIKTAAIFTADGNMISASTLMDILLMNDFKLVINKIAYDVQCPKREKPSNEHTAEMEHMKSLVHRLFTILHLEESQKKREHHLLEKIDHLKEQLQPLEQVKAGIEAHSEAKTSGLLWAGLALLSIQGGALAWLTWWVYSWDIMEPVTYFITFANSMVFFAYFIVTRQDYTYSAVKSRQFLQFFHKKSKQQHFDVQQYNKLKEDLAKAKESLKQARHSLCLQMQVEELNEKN
UniProt Q96G25: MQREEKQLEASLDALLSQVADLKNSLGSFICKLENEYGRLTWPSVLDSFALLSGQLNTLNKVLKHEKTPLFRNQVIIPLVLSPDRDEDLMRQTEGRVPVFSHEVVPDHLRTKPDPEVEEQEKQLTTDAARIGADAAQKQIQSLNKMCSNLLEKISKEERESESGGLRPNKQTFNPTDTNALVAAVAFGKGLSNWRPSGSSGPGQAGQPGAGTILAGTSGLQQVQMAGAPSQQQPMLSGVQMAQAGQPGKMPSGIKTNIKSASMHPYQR
UniProt P25205: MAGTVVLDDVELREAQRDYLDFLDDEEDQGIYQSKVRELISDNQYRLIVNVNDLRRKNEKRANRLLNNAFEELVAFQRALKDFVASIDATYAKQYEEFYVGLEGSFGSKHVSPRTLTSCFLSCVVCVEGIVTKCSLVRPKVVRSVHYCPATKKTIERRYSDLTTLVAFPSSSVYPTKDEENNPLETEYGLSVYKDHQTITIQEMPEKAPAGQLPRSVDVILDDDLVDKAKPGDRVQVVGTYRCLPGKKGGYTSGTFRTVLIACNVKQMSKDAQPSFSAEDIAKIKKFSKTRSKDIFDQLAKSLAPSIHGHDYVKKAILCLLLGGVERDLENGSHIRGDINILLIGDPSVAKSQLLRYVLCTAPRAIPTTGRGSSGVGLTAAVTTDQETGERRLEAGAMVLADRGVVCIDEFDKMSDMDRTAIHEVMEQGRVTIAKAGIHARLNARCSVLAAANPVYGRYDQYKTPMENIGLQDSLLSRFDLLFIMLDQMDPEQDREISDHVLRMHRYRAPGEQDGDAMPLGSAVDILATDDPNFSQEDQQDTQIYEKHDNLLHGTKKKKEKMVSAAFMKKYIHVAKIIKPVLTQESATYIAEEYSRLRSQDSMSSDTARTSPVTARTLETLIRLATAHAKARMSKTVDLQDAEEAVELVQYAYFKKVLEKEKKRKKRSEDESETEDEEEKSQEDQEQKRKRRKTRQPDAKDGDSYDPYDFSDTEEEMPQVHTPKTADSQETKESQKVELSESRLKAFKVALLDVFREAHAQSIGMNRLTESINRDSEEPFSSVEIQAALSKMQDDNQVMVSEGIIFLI
UniProt Q6ZNC8: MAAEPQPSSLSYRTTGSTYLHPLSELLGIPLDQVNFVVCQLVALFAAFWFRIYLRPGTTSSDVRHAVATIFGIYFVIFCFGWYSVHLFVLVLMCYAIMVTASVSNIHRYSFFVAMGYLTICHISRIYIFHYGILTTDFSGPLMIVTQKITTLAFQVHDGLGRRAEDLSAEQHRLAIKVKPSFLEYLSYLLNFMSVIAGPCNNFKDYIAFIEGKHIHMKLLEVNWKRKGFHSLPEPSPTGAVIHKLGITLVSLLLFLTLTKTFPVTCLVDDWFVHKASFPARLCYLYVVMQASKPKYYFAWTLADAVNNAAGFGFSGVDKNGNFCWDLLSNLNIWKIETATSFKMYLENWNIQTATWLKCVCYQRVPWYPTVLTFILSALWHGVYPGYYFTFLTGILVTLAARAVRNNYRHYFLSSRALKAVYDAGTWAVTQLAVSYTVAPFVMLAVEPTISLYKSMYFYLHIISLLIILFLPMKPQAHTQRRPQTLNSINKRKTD
UniProt Q8NE86: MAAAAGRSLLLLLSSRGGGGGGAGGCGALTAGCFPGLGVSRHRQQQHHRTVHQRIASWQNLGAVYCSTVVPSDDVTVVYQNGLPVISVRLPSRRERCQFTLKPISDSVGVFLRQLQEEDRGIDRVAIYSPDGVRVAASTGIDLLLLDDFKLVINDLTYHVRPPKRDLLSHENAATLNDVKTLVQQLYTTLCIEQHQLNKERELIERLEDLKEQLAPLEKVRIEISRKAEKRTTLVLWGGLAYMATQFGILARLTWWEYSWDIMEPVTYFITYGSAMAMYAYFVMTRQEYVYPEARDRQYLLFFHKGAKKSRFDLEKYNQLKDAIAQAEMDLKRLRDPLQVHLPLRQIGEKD
UniProt Q86W50: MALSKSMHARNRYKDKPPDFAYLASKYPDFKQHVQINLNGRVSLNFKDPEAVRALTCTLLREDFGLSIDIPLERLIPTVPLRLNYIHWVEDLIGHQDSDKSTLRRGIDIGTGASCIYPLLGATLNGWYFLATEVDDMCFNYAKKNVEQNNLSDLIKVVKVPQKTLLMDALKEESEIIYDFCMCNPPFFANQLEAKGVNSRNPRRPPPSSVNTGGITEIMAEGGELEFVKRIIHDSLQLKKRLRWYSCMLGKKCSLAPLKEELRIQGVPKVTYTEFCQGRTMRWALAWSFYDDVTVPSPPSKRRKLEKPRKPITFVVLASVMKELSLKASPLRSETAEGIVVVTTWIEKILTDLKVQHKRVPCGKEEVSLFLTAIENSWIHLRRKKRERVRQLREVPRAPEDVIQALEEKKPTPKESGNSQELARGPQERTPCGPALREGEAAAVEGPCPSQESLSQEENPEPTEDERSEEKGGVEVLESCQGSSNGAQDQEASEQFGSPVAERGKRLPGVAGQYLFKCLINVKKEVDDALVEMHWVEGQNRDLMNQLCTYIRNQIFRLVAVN
UniProt O95402: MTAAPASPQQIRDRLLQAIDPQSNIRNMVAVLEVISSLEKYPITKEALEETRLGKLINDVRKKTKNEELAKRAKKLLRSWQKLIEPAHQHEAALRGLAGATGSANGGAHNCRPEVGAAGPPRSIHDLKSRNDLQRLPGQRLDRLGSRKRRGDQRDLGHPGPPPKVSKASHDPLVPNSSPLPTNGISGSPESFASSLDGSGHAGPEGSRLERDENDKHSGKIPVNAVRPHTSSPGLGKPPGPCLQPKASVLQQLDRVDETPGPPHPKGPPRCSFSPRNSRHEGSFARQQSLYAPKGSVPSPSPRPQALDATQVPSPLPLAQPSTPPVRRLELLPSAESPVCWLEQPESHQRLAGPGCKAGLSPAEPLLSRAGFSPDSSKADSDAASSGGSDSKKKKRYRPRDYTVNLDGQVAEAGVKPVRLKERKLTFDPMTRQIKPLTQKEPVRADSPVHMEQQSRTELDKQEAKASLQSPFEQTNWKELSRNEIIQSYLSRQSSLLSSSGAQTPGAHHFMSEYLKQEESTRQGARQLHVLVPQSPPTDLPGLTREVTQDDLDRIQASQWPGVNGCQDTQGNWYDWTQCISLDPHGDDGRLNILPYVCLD
UniProt Q9BTE3: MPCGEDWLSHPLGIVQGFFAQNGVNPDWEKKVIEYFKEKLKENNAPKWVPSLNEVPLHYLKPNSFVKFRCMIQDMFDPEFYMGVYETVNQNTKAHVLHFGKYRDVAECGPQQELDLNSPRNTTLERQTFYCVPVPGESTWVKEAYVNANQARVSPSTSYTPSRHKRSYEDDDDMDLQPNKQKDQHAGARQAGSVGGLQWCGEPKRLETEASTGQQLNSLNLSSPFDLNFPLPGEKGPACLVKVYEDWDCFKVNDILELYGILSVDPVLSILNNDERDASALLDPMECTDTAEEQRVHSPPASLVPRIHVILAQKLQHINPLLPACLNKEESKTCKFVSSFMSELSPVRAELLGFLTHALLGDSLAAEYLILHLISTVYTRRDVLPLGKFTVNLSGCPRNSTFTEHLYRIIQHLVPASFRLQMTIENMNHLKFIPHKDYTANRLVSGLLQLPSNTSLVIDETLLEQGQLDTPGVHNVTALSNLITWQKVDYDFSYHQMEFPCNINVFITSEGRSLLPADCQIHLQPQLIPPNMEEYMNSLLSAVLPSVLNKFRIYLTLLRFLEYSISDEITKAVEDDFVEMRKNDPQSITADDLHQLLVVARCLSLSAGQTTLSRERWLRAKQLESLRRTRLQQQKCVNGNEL
UniProt Q96GX5: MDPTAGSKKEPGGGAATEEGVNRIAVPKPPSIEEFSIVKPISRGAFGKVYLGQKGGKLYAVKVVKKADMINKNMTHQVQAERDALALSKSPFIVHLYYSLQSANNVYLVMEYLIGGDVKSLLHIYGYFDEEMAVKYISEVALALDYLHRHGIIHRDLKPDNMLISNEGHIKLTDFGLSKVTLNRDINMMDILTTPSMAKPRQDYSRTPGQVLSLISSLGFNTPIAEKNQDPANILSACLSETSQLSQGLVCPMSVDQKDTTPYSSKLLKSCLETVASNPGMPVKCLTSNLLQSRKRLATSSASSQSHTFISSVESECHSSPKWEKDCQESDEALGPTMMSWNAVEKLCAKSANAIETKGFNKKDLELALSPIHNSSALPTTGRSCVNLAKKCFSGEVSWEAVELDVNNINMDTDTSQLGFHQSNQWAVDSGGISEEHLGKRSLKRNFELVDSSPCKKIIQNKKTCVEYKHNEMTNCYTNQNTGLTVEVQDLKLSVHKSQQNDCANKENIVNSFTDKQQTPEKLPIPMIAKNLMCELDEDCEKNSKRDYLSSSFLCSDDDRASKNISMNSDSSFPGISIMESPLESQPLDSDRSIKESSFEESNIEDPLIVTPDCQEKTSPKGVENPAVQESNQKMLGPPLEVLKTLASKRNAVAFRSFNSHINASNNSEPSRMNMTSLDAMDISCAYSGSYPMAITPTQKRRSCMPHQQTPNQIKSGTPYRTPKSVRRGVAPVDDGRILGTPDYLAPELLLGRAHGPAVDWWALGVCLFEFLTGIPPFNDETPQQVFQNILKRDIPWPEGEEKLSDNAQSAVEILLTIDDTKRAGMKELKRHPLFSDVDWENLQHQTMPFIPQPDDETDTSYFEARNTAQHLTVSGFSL
UniProt Q71SY5: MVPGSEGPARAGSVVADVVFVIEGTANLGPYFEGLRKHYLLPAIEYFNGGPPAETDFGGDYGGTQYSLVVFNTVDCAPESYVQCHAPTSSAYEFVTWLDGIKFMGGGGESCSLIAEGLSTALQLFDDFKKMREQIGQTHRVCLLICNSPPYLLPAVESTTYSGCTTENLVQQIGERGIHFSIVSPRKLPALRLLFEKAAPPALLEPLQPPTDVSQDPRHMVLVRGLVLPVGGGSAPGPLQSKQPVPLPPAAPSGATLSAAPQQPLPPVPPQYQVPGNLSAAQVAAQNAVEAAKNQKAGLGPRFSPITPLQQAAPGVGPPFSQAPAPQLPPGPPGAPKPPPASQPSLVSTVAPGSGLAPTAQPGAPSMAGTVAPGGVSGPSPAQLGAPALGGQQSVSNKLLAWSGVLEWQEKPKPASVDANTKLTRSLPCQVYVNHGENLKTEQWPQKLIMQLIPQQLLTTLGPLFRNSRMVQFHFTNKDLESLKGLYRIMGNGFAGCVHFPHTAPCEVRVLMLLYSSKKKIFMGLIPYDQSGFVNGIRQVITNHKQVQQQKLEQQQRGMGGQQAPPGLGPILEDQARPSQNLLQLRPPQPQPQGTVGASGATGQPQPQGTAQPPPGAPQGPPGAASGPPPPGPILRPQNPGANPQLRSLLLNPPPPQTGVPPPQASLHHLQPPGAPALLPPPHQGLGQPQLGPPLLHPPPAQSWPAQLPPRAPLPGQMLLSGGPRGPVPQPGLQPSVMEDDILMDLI

How the values were obtained:
Test in all cases: log2 fold change, soluble protein after heating vs DMSO (PISA); higher = thermal stabilisation; K562 cells, 10 uM, 30 min; active = over 0.2 and 3.5 SD of the protein, either way, in both replicates (recomputed)
[1] = compound: NC(=O)Nc1cc(-c2cccc(F)c2)sc1C(=O)N[C@H]1CCCNC1
Summary of the method: (§1)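 K562 cells at 2×10^6 cells/mL were given 10 μM compound for 30 min. Aliquots then went through 3 min of heating across 48°C-58°C, were pooled, and were extracted in PBS with 0.5% NP-40 at 4°C, and the supernatant after 21,000xg for 90 min was quantified by TMTpro 16plex LC-MS/MS with channel sums equalised. Thermal stability relative to control samples, from duplicates, is given as log2 fold change.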

[2] = compound: NC(=O)c1cnc(N[C@@H]2CCCC[C@@H]2N)nc1Nc1cccc(-n2nccn2)c1
Summary of the method: as §1

[3] = compound: NC1(c2ccc(-c3nc4ccn5c(=O)[nH]nc5c4cc3-c3ccccc3)cc2)CCC1
Summary of the method: as §1

[4] = compound: Nc1ccccc1NC(=O)c1ccc(CNC(=O)OCc2cccnc2)cc1 [entinostat]
Summary of the method: as §1

[5] = compound: O=C(CCCCCCC(=O)Nc1ccccc1)NO [vorinostat]
Summary of the method: as §1

[6] = compound: O=C(CCCCCCNC(=O)c1cnc(N(c2ccccc2)c2ccccc2Cl)nc1)NO [citarinostat]
Summary of the method: as §1

[7] = compound: O=C(O)c1ccc2c(c1)nc(Nc1cccc(Cl)c1)c1ccncc12 [silmitasertib]
Summary of the method: as §1

[8] = compound: O=C1NC(=O)C(c2cnc3ccccn23)=C1c1cn2c3c(cc(F)cc13)CN(C(=O)N1CCCCC1)CC2
Summary of the method: as §1

[9] = compound: c1cc(OCCN2CCCCC2)cc(-c2n[nH]c3ccc(-c4nnc[nH]4)cc23)c1
Summary of the method: as §1

[10] = compound: NCC(=O)Nc1ccc(-n2nc(C(F)(F)F)cc2-c2ccc3c(ccc4ccccc43)c2)cc1
Summary of the method: as §1

Row | Target | log2 fold change [1] | log2 fold change [2] | log2 fold change [3] | log2 fold change [4] | log2 fold change [5] | log2 fold change [6] | log2 fold change [7] | log2 fold change [8] | log2 fold change [9] | log2 fold change [10]
1 | MED12 isoform 2 (UniProt Q93074) | inactive: 0.022 | inactive: -0.455 | inactive: -0.191 | inactive: 0.066 | inactive: 0.22 | inactive: 0.181 | inactive: 0.016 | inactive: -0.005 | inactive: -0.311 | –
2 | MCM2 (UniProt P49736) | inactive: 0.004 | inactive: -0.05 | inactive: -0.095 | inactive: 0.025 | inactive: 0.044 | inactive: 0.032 | inactive: -0.005 | inactive: -0.02 | inactive: -0.019 | inactive: -0.012
3 | METTL25 (UniProt Q8N6Q8) | inactive: -0.112 | inactive: 0.14 | inactive: -0.121 | inactive: -0.138 | inactive: -0.03 | – | inactive: 0.077 | inactive: -0.207 | – | inactive: -0.157
4 | MCUB (UniProt Q9NWR8) | inactive: -0.057 | inactive: -0.078 | inactive: 0.1 | inactive: 0.052 | inactive: 0.152 | inactive: -0.047 | inactive: -0.092 | inactive: -0.155 | inactive: 0.003 | inactive: -0.02
5 | MED8 isoform 2 (UniProt Q96G25) | inactive: 0.048 | inactive: 0.2 | inactive: 0.038 | inactive: -0.107 | – | inactive: 0.035 | inactive: 0.079 | inactive: -0.043 | inactive: -0.092 | inactive: 0.303
6 | MCM3 isoform 2 (UniProt P25205) | inactive: -0.021 | inactive: 0.009 | inactive: -0.049 | inactive: 0.001 | inactive: 0.026 | inactive: 0 | inactive: -0.03 | inactive: -0.009 | inactive: -0.028 | inactive: 0.01
7 | MBOAT1 (UniProt Q6ZNC8) | inactive: -0.113 | inactive: -0.186 | – | inactive: -0.012 | – | inactive: -0.041 | – | inactive: -0.082 | inactive: -0.125 | inactive: -0.238
8 | MBOAT7 (UniProt Q96N66) | inactive: 0.005 | inactive: -0.034 | inactive: -0.029 | inactive: 0.011 | inactive: 0.031 | inactive: 0.026 | inactive: 0.012 | inactive: -0.032 | inactive: -0.017 | inactive: -0.022
9 | MCU (UniProt Q8NE86) | inactive: 0.005 | inactive: -0.059 | inactive: -0.142 | inactive: 0.034 | inactive: -0.013 | inactive: 0.075 | inactive: -0.007 | inactive: -0.034 | inactive: -0.052 | inactive: -0.131
10 | METTL16 (UniProt Q86W50) | inactive: 0.021 | inactive: -0.046 | inactive: -0.057 | inactive: -0.004 | inactive: 0.085 | inactive: 0.056 | inactive: 0.043 | inactive: -0.007 | inactive: -0.073 | inactive: 0.021
11 | MED26 (UniProt O95402) | inactive: 0.141 | inactive: 0.285 | – | inactive: -0.132 | inactive: 0.076 | – | – | – | – | inactive: 0
12 | MCMBP (UniProt Q9BTE3) | inactive: -0.016 | inactive: -0.103 | inactive: 0.022 | inactive: 0.016 | inactive: 0.143 | inactive: 0.046 | inactive: 0.03 | inactive: -0.017 | inactive: 0.141 | inactive: -0.047
13 | MASTL (UniProt Q96GX5) | inactive: 0.123 | inactive: -0.018 | inactive: 0.144 | inactive: 0.053 | – | inactive: -0.018 | inactive: 0.123 | inactive: 0.039 | inactive: 0.002 | inactive: -0.004
14 | MED25 isoform 3 (UniProt Q71SY5) | inactive: -0.016 | inactive: -0.021 | active: -0.591 | inactive: 0.065 | inactive: -0.349 | inactive: 0.052 | inactive: 0.174 | – | inactive: -0.148 | inactive: 0.064

Record cards (already shown). Values in the order: log2 fold change [1] | log2 fold change [2] | log2 fold change [3] | log2 fold change [4] | log2 fold change [5] | log2 fold change [6] | log2 fold change [7] | log2 fold change [8] | log2 fold change [9] | log2 fold change [10]
MBOAT7 (UniProt Q96N66) in the list: inactive: 0.005 | inactive: -0.034 | inactive: -0.029 | inactive: 0.011 | inactive: 0.031 | inactive: 0.026 | inactive: 0.012 | inactive: -0.032 | inactive: -0.017 | inactive: -0.022
MED25 isoform 3 (UniProt Q71SY5) in the list: inactive: -0.016 | inactive: -0.021 | active: -0.591 | inactive: 0.065 | inactive: -0.349 | inactive: 0.052 | inactive: 0.174 | – | inactive: -0.148 | inactive: 0.064
